Among the data in US20130004519A1 are binding values, retold here.

The chains behind the UniProt entries cited, without tags or fusion partners. Residues count along the entry.
UniProt P24821, residues 23-2201: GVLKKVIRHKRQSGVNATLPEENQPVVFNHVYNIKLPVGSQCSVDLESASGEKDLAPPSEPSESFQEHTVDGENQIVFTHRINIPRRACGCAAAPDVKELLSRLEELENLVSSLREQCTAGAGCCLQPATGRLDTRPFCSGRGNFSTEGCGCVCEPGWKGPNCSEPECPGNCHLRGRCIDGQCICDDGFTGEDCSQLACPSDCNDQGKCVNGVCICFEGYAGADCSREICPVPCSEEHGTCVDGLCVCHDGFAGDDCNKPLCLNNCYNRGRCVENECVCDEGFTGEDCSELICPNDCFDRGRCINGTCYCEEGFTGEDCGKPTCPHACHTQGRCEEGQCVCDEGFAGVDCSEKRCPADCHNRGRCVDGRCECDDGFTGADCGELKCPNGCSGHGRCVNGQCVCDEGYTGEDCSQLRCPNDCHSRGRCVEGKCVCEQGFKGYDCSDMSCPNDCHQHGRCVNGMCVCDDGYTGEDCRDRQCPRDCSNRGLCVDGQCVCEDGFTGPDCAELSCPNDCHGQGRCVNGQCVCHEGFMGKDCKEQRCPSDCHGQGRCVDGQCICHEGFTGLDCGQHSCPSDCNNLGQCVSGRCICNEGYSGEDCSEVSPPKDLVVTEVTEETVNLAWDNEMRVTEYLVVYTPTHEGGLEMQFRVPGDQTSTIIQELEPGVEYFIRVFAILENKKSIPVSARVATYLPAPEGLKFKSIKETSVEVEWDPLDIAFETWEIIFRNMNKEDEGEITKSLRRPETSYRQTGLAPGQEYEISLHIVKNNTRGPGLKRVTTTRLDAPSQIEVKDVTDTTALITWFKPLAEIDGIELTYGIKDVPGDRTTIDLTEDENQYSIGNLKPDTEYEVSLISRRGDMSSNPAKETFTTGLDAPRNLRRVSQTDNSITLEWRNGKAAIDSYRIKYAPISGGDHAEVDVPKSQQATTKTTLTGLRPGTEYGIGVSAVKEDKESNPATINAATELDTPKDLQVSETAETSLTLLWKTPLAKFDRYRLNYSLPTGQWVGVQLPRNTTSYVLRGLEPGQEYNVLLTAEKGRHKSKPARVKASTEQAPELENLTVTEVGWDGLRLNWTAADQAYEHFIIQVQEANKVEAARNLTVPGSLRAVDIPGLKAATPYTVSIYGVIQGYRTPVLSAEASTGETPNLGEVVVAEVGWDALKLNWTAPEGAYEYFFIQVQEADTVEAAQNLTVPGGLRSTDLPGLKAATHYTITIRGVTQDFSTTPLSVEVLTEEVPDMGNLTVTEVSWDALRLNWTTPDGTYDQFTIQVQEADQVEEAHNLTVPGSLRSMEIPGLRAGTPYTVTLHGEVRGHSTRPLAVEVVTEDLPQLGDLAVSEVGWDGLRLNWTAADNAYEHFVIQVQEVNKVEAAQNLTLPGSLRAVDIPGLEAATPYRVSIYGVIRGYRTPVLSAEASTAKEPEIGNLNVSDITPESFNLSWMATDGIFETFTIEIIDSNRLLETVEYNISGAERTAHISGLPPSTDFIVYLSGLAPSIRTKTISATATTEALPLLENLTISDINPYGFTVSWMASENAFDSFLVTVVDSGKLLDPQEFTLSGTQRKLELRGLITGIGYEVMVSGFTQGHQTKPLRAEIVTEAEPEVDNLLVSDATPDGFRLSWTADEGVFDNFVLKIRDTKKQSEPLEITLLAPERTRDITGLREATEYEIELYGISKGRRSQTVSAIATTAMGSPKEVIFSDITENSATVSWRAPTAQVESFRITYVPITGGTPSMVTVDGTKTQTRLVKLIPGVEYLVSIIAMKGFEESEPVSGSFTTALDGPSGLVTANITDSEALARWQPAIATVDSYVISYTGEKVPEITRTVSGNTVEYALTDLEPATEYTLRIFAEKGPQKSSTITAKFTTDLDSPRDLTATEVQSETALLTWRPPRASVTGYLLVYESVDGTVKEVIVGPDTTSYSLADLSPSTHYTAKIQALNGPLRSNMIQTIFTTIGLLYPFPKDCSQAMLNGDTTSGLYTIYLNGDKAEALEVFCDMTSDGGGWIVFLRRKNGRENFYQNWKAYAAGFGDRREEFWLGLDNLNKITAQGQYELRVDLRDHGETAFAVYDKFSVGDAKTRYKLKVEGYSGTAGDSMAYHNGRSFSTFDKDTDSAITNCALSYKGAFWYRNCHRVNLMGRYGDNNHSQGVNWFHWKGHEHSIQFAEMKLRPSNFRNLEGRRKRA

Test [1] addresses His-tagged human tenascin-C (human) (UniProt P24821). In words: co-immunoprecipitation from medium of doubly transfected COS cells, western blot.
The target is the same in test [2]. In words: co-immunoprecipitation from COS cell culture medium with the anti-myc antibody (lane labelled SMOC1), western blot probed for tenascin-C.
Test [3] has the same target. In words: summary of pull-down, co-immunoprecipitation and SPR.
Test [4] has the same target. In words: surface plasmon resonance, tenascin-C coupled to a CM5 chip, SMOC1 as soluble analyte. For orientation: Surface plasmon resonance follows binding to a sensor surface in real time, without labels.

Results are given in words; binding and its absence hold for the method and conditions named. For some of these results: Binding seen in cells or lysates may run through a third protein. Some entries that bind do so weakly or less than the wild type. For some of these results: Tags and fused reporters may be left off the sequences shown.

B1: SMOC1-myc-DDK-his (protein, human, not shown: small tags and cut ends)
chain: HRTTGPRFLISDRDPQCNLHCSRTQPKPICASDGRSYESMCEYQRAKCRDPTLGVVHRGRCKDAGQSKCRLERAQALEQAKKPQEAVFVPECGEDGSFTQVQCHTYTGYCWCVTPDGKPISGSSVQNKTPVCSGSVTDKPLSQGNSGRKDDGSKPTPTMETQPVFDGDEITAPTLWIKHLVIKDSKLNNTNIRNSEKVYSCDQERQSALEEAQQNPREGIVIPECAPGGLYKPVQCHQSTGYCWCVLVDTGRPLPGTSTRYVMPSCESDARAKTTEADDPFKDRELPGCPEGKKMEFITSLLDALTTDMVQAINSAAPTGGGRFSEPDPSHTLEERVVHWYFSQLDSNSSNDINKREMKPFKRYVKKKAKPKKCARRFTDYCDLNKDKVISLPELKGCLGVSKEGRLVHHHHHH
Consider B1, for which the binding result in test [1] and in test [2] was “binds” each time.

B2: human recombinant SMOC1 (soluble analyte in surface plasmon resonance) (protein, UniProt Q9H4F8 27-434, looked up, not shown: small tags and cut ends)
chain: HRTTGPRFLISDRDPQCNLHCSRTQPKPICASDGRSYESMCEYQRAKCRDPTLGVVHRGRCKDAGQSKCRLERAQALEQAKKPQEAVFVPECGEDGSFTQVQCHTYTGYCWCVTPDGKPISGSSVQNKTPVCSGSVTDKPLSQGNSGRKDDGSKPTPTMETQPVFDGDEITAPTLWIKHLVIKDSKLNNTNIRNSEKVYSCDQERQSALEEAQQNPREGIVIPECAPGGLYKPVQCHQSTGYCWCVLVDTGRPLPGTSTRYVMPSCESDARAKTTEADDPFKDRELPGCPEGKKMEFITSLLDALTTDMVQAINSAAPTGGGRFSEPDPSHTLEERVVHWYFSQLDSNSSNDINKREMKPFKRYVKKKAKPKKCARRFTDYCDLNKDKVISLPELKGCLGVSKEGRLV
B2: the binding entry in test [3] and in test [4] was “binds” each time.
